# In PubChem BioAssay AID624297 (National Center for Advancing Translational Sciences (NCATS), 2012):
# Where “and” joins values, the source holds several entries; their conditions need not be identical. Identical values can stand only once. The campaign covered roughly 340,000 compounds. About 6,200 (1.8%) were called active. The shares of active, inactive and inconclusive entries below differ from those in the screen. Calls follow the shape of the dose curve; as a rule, active = well fitted activation curve with a large enough effect; inconclusive = small, poorly fitted or top-dose-only effect; inactive = no such curve, though single readings can be large or run the other way. Potencies beside an inconclusive call are fits to weak or partial responses and may not hold up.
# Assay: A quantitative high throughput screen for small molecules that induce DNA re-replication in SW480 colon adenocarcinoma cells. Also: nearly all actives have a fitted effect of over 55% in size. As to re-replication activation: % of control where 0% means no effect.
# Settings: Hoechst DNA content imaging, 48 h; re-replication activation: at 46.1 µM (top of the series) unless noted
# Summary of the method: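 Treated cells incubate 48 hr (37 C, 5% CO2), are stained 40 min with Hoechst, and nuclear fluorescence is enumerated; a rise in nuclei with high DNA signal marks re-replication.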
# Potency is read from the fitted curve at half-maximal effect.
SMILES,Potency,re-replication activation
Cn1nc(C(=O)Nc2cccc(Cl)c2)cc1C(=O)Nc1cccc(Cl)c1,"inconclusive: 9.2 µM [activator, partial curve, poor fit]",–
O=C(Nc1cccnc1)c1cc2cc(Br)ccc2o1,"inconclusive: 14.6 µM [activator, single point]",–
Cc1ccccc1N1CCN(C(=O)CN2C(=O)c3ccccc3C2=O)CC1,"inconclusive: 0.517 µM [activator, full curve, poor fit]",–
O=[N+]([O-])c1ccc(N=NN(CCO)CCO)cc1,active: 23.1 µM,–
Cc1cc(C)c(OCC(=O)Nc2ccccc2N2CCOCC2)c(C)c1,"inconclusive: 29.1 µM [activator, single point]",–
CCOC(=O)c1cc(-c2ccc(OC)cc2)nc2c1c(C)nn2CCC(N)=S,"inconclusive: 23.1 µM [activator, single point]",–
Cc1ccc(C)c(S(=O)(=O)N2CCCC2CNC(=O)C(=O)NCc2ccco2)c1 (centres undefined),–,inactive: 0.362%
CC(C)(C)c1ccc(C(=O)N/N=C/c2cccc(Cl)c2)cc1,"inconclusive: 20.6 µM [activator, partial curve, poor fit]",–
Cc1ccc(Cc2nc3ccccc3[nH]2)cc1,–,inactive: -4.3%
O=S(=O)(N1CCOCC1)n1c(Cc2ccccc2)nc2ccccc21,"inconclusive: 20.6 µM [activator, single point]",–
Cc1ccc(OCC(=O)N2N=C(c3ccncc3)CC2(O)C(F)(F)F)cc1C (centres undefined),"inconclusive: 0.259 µM [activator, full curve, poor fit]",–
CCn1c(C)nc2cc(C(=O)N/N=C/c3cccc(O)c3O)ccc21,"inconclusive: 0.82 µM [activator, full curve, poor fit]",–
CCCCNC1C(CC)C(CCC)C(C#N)(C#N)C1(C#N)C#N (centres undefined),"inconclusive: 20.6 µM [activator, single point]",–
CCN(CC)CCNC(=O)c1ccc(NC(=O)/C=C/c2ccc3ccccc3n2)cc1,"inconclusive: 29.1 µM [activator, single point]",–
O=C(CSc1nc(-c2ccccc2)nc2ccccc12)Nc1cccc(C(=O)O)c1,"inconclusive: 2.91 µM [activator, partial curve, poor fit]",–
COCC(=O)N1CCCC(C(=O)c2ccc(Oc3ccccc3)cc2)C1 (centres undefined),–,inactive: -3.34%
Cc1cc(C)cc(NC(=O)C2(c3ccccc3)CC2(Cl)Cl)c1 (centres undefined),"inconclusive: 32.6 µM [activator, partial curve, poor fit]",–
CC(C)NC(=O)N(C)C[C@H]1Oc2c(NC(=O)Nc3ccc4c(c3)OCO4)cccc2C(=O)N([C@H](C)CO)C[C@@H]1C,"inconclusive: 18.4 µM [activator, single point]",–
COc1ccccc1/C=C/C(=O)Oc1cccc2cccnc12,"inconclusive: 10.3 µM [activator, partial curve]",–
Cc1ccc2cc(C#N)c(N3CCN(C(=O)c4ccccc4)CC3)nc2c1,"inconclusive: 6.51 µM [activator, single point]",–
COc1ccc(C2NN=C(c3c[nH]c4ccccc34)C2O)cc1 (centres undefined),"inconclusive: 23.1 µM [activator, single point]",–
C[C@H](O)[C@@H]1C(=O)N2CCc3ccc(N4CCN(C)CC4)cc3[C@@H]2C[C@@H]1N(C)C(=O)c1ccc(C#N)cc1,"inconclusive: 3.26 µM [activator, partial curve, poor fit]",–
Cc1ccc(N2C(N)=C(C#N)C(c3cccs3)C3=C2CC(C)(C)CC3=O)cc1 (centres undefined),"inconclusive: 20.6 µM [activator, single point]",–

SMILES,Potency,re-replication activation
Cn1cccc1C(=O)N1CCN(S(=O)(=O)c2ccccc2)CC1,"inconclusive: 0.58 µM [activator, full curve, poor fit]",–
N#CC[C@H](c1ccccc1)N1CCN(Cc2ccccc2)CCC1=O,–,inactive: -1.11%
O=C(CCc1ccccc1)Nc1nc2c(F)cc(F)cc2s1,"inconclusive: 29.1 µM [activator, single point]",–
O=C(C[C@@H]1C/C=C\CCC(=O)OC[C@@H]2CCCN2C1=O)N[C@@H](CO)Cc1ccccc1,–,inactive: 5.26%
Cc1ccc(N2C(=O)N(CC(=O)Nc3ccc(C)cc3Cl)C(=O)C2C)cc1 (centres undefined),–,inactive: -7.21%
CC(=O)Nc1nnc(COc2ccccc2)s1,active: 18.4 µM,–
O=C1NCCN(Cc2ccc(F)cc2)C1CC(=O)N1CC=C(c2ccccc2)CC1 (centres undefined),"inconclusive: 16.4 µM [activator, partial curve]",–
Cc1c(CCOC(=O)c2ccccc2)sc[n+]1CC(=O)c1ccc(Br)cc1,–,inactive: 5.23%
C=CCN(c1ccccc1)S(=O)(=O)c1cccc(C(=O)NCC(c2ccccc2OC)N2CCCC2)c1 (centres undefined),"inconclusive: 1.64 µM [activator, partial curve, poor fit]",–
COc1cc2c(cc1OC)C(C)N(C(=O)c1c(C)noc1C)CC2 (centres undefined),"inconclusive: 6.51 µM [activator, single point]",–
COc1cccc(CNC(=O)COc2cccc3c2OC(C)(C)C3)c1,"inconclusive: 8.2 µM [activator, partial curve, poor fit]",–
Cc1cccnc1NC(=O)c1ccc([N+](=O)[O-])o1,"inconclusive: 32.6 µM [activator, partial curve, poor fit]",–
COCC(C)n1c(-c2ccc3c(c2)NC(=O)CO3)csc1=Nc1ccc(OC(F)F)cc1 (centres undefined),"inconclusive: 16.4 µM [activator, partial curve, poor fit] and inconclusive: 29.1 µM [activator, single point]",–
COc1cc2cc(/C=C/C(=O)c3ccco3)c(Cl)nc2cc1OC,active: 20.6 µM,–
O=C(CCc1ccc(O)cc1)N/N=C/c1coc2ccccc2c1=O,"inconclusive: 14.6 µM [activator, partial curve, poor fit]",–
Cc1ccc2c(C)c(C(=O)N(Cc3ccc(F)cc3)C3CCS(=O)(=O)C3)oc2c1 (centres undefined),"inconclusive: 32.6 µM [activator, partial curve, poor fit]",–
CC[N+](CC)(CC#Cc1ccccc1)CC(=O)c1ccc(Cl)cc1,"inconclusive: 23.1 µM [activator, single point]",–
Cc1cccc(N(C)S(=O)(=O)c2ccc(-c3cc(C)no3)s2)c1,active: 0.82 µM,–
COC(=O)c1ccccc1NC(=S)NC(=O)COc1ccccc1,–,inactive: 3.54%
CCCN(CC(=O)Nc1ccccc1C)C(=O)C1CC(=O)N(c2ccccc2OCC)C1 (centres undefined),"inconclusive: 6.51 µM [activator, single point]",–
N#CCCn1cc(C(=O)Nc2ccc([N+](=O)[O-])cc2)c(-c2cccs2)n1,"inconclusive: 32.6 µM [activator, partial curve, poor fit]",–
CN(C(=O)c1c(Cl)nc2sccn12)C1CCCCC1,"inconclusive: 23.1 µM [activator, single point]",–
COc1ccc(-n2nc(C(=O)NCC(=O)NCCCN3CCOCC3)c3ccccc3c2=O)cc1,–,inactive: -0.133%

SMILES,Potency,re-replication activation
CCOC(=O)N1CCN(c2nnc(-c3ccc(C)cc3)c3ccccc23)CC1,–,inactive: -4.28%
CCN1C(=O)[C@H]2[C@@H](c3ccc(-c4ccc(F)cc4)cc3)N[C@@](Cc3ccccc3)(C(=O)OC)[C@H]2C1=O,"inconclusive: 13 µM [activator, single point]",–
Cc1nn(-c2nc3ccccc3[nH]2)c(=O)c2ccccc12,–,inactive: 2.86%
O=C(COc1ccc(Br)cc1)NNC(=S)NCc1ccccc1,–,inactive: 2.98%
Cc1cc(N2CCN(c3ccccc3)CC2)nc(-n2nc(C)cc2C)n1,"inconclusive: 3.26 µM [activator, partial curve, poor fit]",–
CC(C)n1nnc(-c2ccc(OCc3ccccc3F)cc2)n1,active: 14.6 µM,–
O=C(COc1ccccc1Cl)Nc1cccc(S(=O)(=O)N2CCCC2)c1,–,inactive: -13.9%
COc1ccc(NC(=O)CSc2nc3c(cc2C#N)CN(C)CC3)cc1,–,inactive: -5.94%
CN1CCN(C(=S)NC(=O)c2ccc(C(C)(C)C)cc2)CC1,–,inactive: 1.85%
Cc1[nH]c2ccccc2c1N=Nc1ccc(F)cc1,–,inactive: -0.0963%
Cc1ccnc(NS(=O)(=O)c2cccc([N+](=O)[O-])c2)c1,–,inactive: -7.26%
CC1CCCCN1S(=O)(=O)c1ccc(C(=O)Nc2nnc(C3=COCCO3)o2)cc1 (centres undefined),"inconclusive: 29.1 µM [activator, single point]",–
O=C(O)c1ccc(NCc2nc3ccccc3n2CCOc2ccccc2Cl)cc1,"inconclusive: 20.6 µM [activator, single point]",–
Cc1nc(SCC(=O)Nc2ccccc2Cl)c2c(C)c(C)sc2n1,–,inactive: 1.98%
COc1ccc(C(=O)O)cc1NC(=S)NC(=O)/C=C/c1ccc(C(C)C)cc1,–,inactive: 0.72%
CCOCCCNC(=O)CNC(=S)N(Cc1ccccc1F)C1CCCCC1,–,inactive: 4.04%
O=C(NCc1ccco1)c1cccc2c1C(=O)c1ccc(N3CCC(Cc4ccccc4)CC3)cc1S2(=O)=O,"inconclusive: 6.51 µM [activator, partial curve, poor fit]",–
O=C(COC(=O)c1cc([N+](=O)[O-])ccc1NCCO)c1ccccc1,"inconclusive: 11.6 µM [activator, partial curve]",–
CCc1nc2nc(C)c(NS(=O)(=O)c3ccc(Cl)s3)c(=O)n2[nH]1,–,inactive: 15.3%
N#CC1=C(N)SC(N)=C(C#N)C1c1cccc(Oc2ccccc2)c1,–,inactive: 8.17%
Cc1ccc(S(=O)(=O)N2CCCCC2)cc1NC(=O)CSc1nncn1-c1ccccc1,–,inactive: -5.29%
CCC(NC(=O)c1ccccc1NC(=O)C(C)(C)C)C(=O)N1CC(C)OC(C)C1 (centres undefined),–,inactive: -3.7%
Cc1ccc(C)c(N2CCN(C(=O)CCCn3c(=S)[nH]c4cc5c(cc4c3=O)OCO5)CC2)c1,–,inactive: -2.25%
